Data source: PubChem BioAssay AID504774 (Drosophila RNAi Screening Center, 2011)

Purpose: 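Fly genes whose loss alters survival after alkylation damage to DNA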 (primary screen)
Cells: Drosophila Kc167 cells
Reagent: long dsRNA against Drosophila genes, about 0.25 µg dsRNA per well
Time to read-out: about 6 days: 3 days knock-down, then 3 days with or without MMS
Challenge: methyl methanesulphonate 0.004% (w/v) for 3 days after knock-down
Measured: 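ATP-dependent luminescence as a measure of live cells in MMS-exposed wells, quantile normalised within each plate, with replicate values also given as a mean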
Scale: mean viability with MMS and viability with MMS: higher = more surviving cells after MMS
In all, the deposit lists about 23,000 reagents; this is a random part of those that have a named target and a result. 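Values are quantile-normalised luminescence on an arbitrary scale; higher means more cells surviving MMS.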 Reagents against one gene are numbered here. Names joined by + are all predicted targets of the reagent. Further read-outs or replicates are left out here. Reagent sequences are not shown.

predicted target	dsRNA no.	mean viability with MMS	viability with MMS, replicate 1
CG14135	1	3.84e6	4.44e6
CG2614	1	1.75e6	4.07e6
CG4438	1	3.88e6	4.17e6
CG17570	1	3.62e6	4.07e6
CG17570	2	3.46e6	3.90e6
TwdlV (TweedleV)	1	3.61e6	4.02e6
mRpL11 (mitochondrial ribosomal protein L11)	1	3.64e6	4.09e6
mthl1 (methuselah-like 1)	1	3.55e6	4.10e6
Gpo2 (Glycerophosphate oxidase 2)	1	3.61e6	4.07e6
JhI-26 (Juvenile hormone-inducible protein 26)	1	3.48e6	3.90e6
IntS14 (Integrator 14)	1	3.85e6	4.39e6
rngo (rings lost)	1	1.83e6	4.04e6
Smug	1	3.56e6	4.16e6
Nmdar2 (NMDA receptor 2)	1	3.95e6	4.22e6
Nmdar2 (NMDA receptor 2)	2	3.85e6	4.29e6
Nmdar2 (NMDA receptor 2)	3	3.69e6	4.30e6
CG2082	1	3.81e6	4.31e6
Hex-A (Hexokinase A)	1	3.49e6	3.97e6
CG1213	1	3.51e6	3.97e6
CG31524	1	3.69e6	4.17e6
CG3517	1	3.38e6	3.82e6
CG11788	1	3.50e6	3.98e6
Pex1 (Peroxin 1)	1	3.60e6	4.05e6
sala (spalt-adjacent)	1	3.47e6	4.02e6
CG1387	1	3.63e6	4.15e6
CG32457	1	3.54e6	4.02e6
CG32457	2	3.26e6	3.76e6
CG18476	1	3.67e6	4.20e6
CG13919	1	3.51e6	4.04e6
CG32262	1	3.67e6	4.29e6
CG10405	1	3.37e6	3.91e6
CG3788	1	3.61e6	4.10e6
CG32645	1	3.66e6	4.11e6
CG32645	2	3.52e6	3.96e6
CycB3 (Cyclin B3)	1	3.58e6	4.09e6
Ir7a (Ionotropic receptor 7a)	1	3.43e6	3.87e6
Gagr (Gag-related)	1	3.71e6	4.22e6
Ns1 (Nucleostemin 1)	1	3.47e6	4.04e6
Art2 (Arginine methyltransferase 2)	1	3.44e6	3.94e6
hkb (huckebein)	1	3.47e6	4.02e6

No new results follow: 8 of the entries above.
predicted target	dsRNA no.	mean viability with MMS	viability with MMS, replicate 1
CG3517	1	3.38e6	3.82e6
CG11788	1	3.50e6	3.98e6
Pex1 (Peroxin 1)	1	3.60e6	4.05e6
sala (spalt-adjacent)	1	3.47e6	4.02e6
CG1387	1	3.63e6	4.15e6
CG32457	1	3.54e6	4.02e6
CG32457	2	3.26e6	3.76e6
CG18476	1	3.67e6	4.20e6

The results go on:
predicted target	dsRNA no.	mean viability with MMS	viability with MMS, replicate 1
asRNA:CR33945 (antisense RNA:CR33945)	1	3.63e6	4.06e6
Rack1 (Receptor of activated protein kinase C 1)	1	3.46e6	3.88e6
BEAF-32 + CG42254 (retired record)	1	3.78e6	4.32e6
squ (squash)	1	3.56e6	3.97e6
CG8067	1	3.74e6	4.14e6
CG31463	1	3.48e6	3.93e6
CG18809	1	3.47e6	4.01e6
Rcd4 (Reduction in Cnn dots 4)	1	3.60e6	3.98e6
Ttc1 (Tetratricopeptide repeat domain 1)	1	3.35e6	3.75e6
Ttc1 (Tetratricopeptide repeat domain 1)	2	3.78e6	4.14e6
CG2493	1	3.29e6	3.83e6
L (Lobe)	1	3.43e6	3.84e6
L (Lobe)	2	3.53e6	3.89e6
BBS4 (Bardet-Biedl syndrome 4)	1	1.80e6	3.75e6
Spn75F (Serpin 75F)	1	3.62e6	4.24e6
Ptpa (Phosphotyrosyl phosphatase activator)	1	3.65e6	4.19e6
sro (shroud)	1	3.52e6	4.24e6
Ucp4B (Uncoupling protein 4B)	1	3.65e6	4.27e6
Gr64f (Gustatory receptor 64f)	1	3.49e6	3.97e6
CG3568	1	3.62e6	4.13e6
CG15147	1	3.54e6	3.97e6
CG15147	2	3.48e6	4.01e6
NC2beta (Negative Cofactor 2beta)	1	3.71e6	4.31e6
Sfp93F (Seminal fluid protein 93F)	1	1.83e6	3.95e6
mRpS7 (mitochondrial ribosomal protein S7)	1	3.62e6	4.12e6
Eig71Ef (Ecdysone-induced gene 71Ef)	1	3.48e6	3.92e6
CG9799	1	3.22e6	3.74e6
CG13837	1	3.59e6	4.15e6
